PubChem BioAssay AID1224830, NIAID – 2016
In all, the deposit lists about 18,000 reagents; shown is an unselected part. About 2,900 of all reagents (16%) were called active. 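Calls are made per well; low scores hint the gene aids the LPS response, high scores that it dampens it.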 Entries without a mark were called inactive. Repeated entries: four replicate wells of each siRNA pool.

Aim: 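Genes whose knock-down alters the TNF-alpha reporter response to LPS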 (primary screen)
Cells: human THP-1 monocytic leukaemia cells, TNF dual-luciferase reporter clone, PMA-differentiated to macrophage-like cells
Reagents: siRNA pool against human genes, 50 nM
Time to read-out: LPS for 4 h, given about 3 days after siRNA transfection
Treatment: bacterial LPS (TLR4 ligand), 10 ng/ml
Detection: 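Ratio of firefly to renilla light, scaled to the plate median and expressed as a robust z-score per replicate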
Reading the numbers: TNF reporter robust z-score: higher = stronger TNF reporter response to LPS
Call rule: 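Each well counts as active if its z-score is over 2.8 or under -1.5; controls are left without a call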

gene	TNF reporter robust z-score
POP1	-1.32
POP1	-0.49
POP1	0.55
POP1	0.95
HMGN1	2.45
HMGN1	3.23 (active)
HMGN1	3.45 (active)
HMGN1	1.26
ZNF622	-0.47
ZNF622	-0.28
ZNF622	-0.22
ZNF622	0.15
PPARGC1A	-1.26
PPARGC1A	-0.93
PPARGC1A	-0.82
HMGCR	-1.18
HMGCR	0.14
HMGCR	-1.01
HMGCR	0.21
BST2	0.36
BST2	0.08
BST2	-0.34
BST2	-0.2
RBM34	-0.97
RBM34	-0.7
RBM34	-0.99
RBM34	-0.88
N4BP2L1	-0.56
N4BP2L1	0.57
N4BP2L1	-0.11
N4BP2L1	-0.44
HLX	0.03
HLX	3.78 (active)
HLX	-0.45
HLX	1.81
DDRGK1	2.52
DDRGK1	0.87
DDRGK1	0.16
DDRGK1	2.34
PLCD3	-0.91
PLCD3	-0.21
PLCD3	-0.75
PLCD3	-0.46
ARMC5	1.88
ARMC5	1.86
ARMC5	1.34
ARMC5	1.24
